Source: PubChem BioAssay AID1259283 (Sanger Institute, 2017)
The whole screen tested 794 reagents; this is a part drawn at random. In the full data, 14 (1.8%) were called active. 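Calls reflect only viability loss without drug; drug synergy does not enter the call.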 Not all columns of the deposit are shown. Not stated in the record: the amount of reagent, the time to read-out.

- Screen: 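Kinases needed for HT115 growth and partners for drug synergy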 (primary screen)
- Cells: HT115 colorectal cancer cells
- Reagents: siRNA pool against human genes
- Conditions: anchor drug given one day after siRNA: BYL719 at 1 µM, cetuximab at 5 µg/ml, trametinib at 10 nM, or DMSO vehicle alone
- Detection: 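Per-drug synergy scores plus replicate-mean viability relative to non-targeting pool #2 wells, also expressed as a robust z-score based on control wells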
- Reading the numbers: robust z-score, knock-down alone: higher = more viable cells after knock-down
- Rule for the call: 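Essential gene: robust z-score less than -3 with no drug added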
- Meaning of the calls: active = essential (z below -3, no drug); inactive = no change without drug

ABL2 scored robust z-score, knock-down alone 0.789; inactive.
After knock-down of DGUOK, the record shows robust z-score, knock-down alone 0.789; inactive.
Knock-down of ITPKC came out at: robust z-score, knock-down alone 0.313; inactive.
FYN showed robust z-score, knock-down alone 0.0656; inactive.
CERT1 showed robust z-score, knock-down alone -0.345; inactive.
For DLG1 the deposit lists robust z-score, knock-down alone -1.03; inactive.
For RPS6KC1, the values are robust z-score, knock-down alone -0.362; inactive.
Against MAGI1, the entry reads robust z-score, knock-down alone -0.654; inactive.
Knock-down of PCBP1 came out at: robust z-score, knock-down alone 0.789; inactive.
INSRR gave robust z-score, knock-down alone 0.789; inactive.
STK25 scored robust z-score, knock-down alone 0.789; inactive.

2 successive entries already listed, quoted:
DGUOK → robust z-score, knock-down alone = 0.789; call = inactive
ITPKC → robust z-score, knock-down alone = 0.313; call = inactive

Next entries:
After knock-down of TCF12, the screen gave robust z-score, knock-down alone 0.789; inactive.
Silencing of MAGI2 resulted in: robust z-score, knock-down alone 0.498; inactive.
After knock-down of PINK1 the results were robust z-score, knock-down alone 0.437; inactive.
After knock-down of NF1 the results were robust z-score, knock-down alone -0.783; inactive.
Against MAP4K3, the values are robust z-score, knock-down alone -1.12; inactive.
Knock-down of TGFBR2 resulted in: robust z-score, knock-down alone -0.421; inactive.
Silencing of ACVR2A gave: robust z-score, knock-down alone -0.786; inactive.
Knock-down of ABL1 came out at: robust z-score, knock-down alone 0.789; inactive.
